Consider 60 sequences from paper PMC7862700.

This is a selection; strong and weak results do not stand in their true shares. For part of these data: At the low end of the ranking the order means little. The list shows a part of the results. For part of these data: The exact form of the protein is not confirmed.

Test in all cases: DAPPL (digital affinity profiling via proximity ligation, sequencing)
What all share (settings): 10 mM Tris-HCl pH 7.5, 50 mM NaCl, 1 mM DTT, 4% glycerol, room temperature, 30 min; GST-TFs on glutathione beads, 16-mer random dsDNA library, 0.1% …; high values mean tight binding; double strand, one strand shown; scale: fold enrichment (6-mer frequency, TF over GST control)

One assay has as its target T1, GABPA (UniProt Q06546).
T1 sequence: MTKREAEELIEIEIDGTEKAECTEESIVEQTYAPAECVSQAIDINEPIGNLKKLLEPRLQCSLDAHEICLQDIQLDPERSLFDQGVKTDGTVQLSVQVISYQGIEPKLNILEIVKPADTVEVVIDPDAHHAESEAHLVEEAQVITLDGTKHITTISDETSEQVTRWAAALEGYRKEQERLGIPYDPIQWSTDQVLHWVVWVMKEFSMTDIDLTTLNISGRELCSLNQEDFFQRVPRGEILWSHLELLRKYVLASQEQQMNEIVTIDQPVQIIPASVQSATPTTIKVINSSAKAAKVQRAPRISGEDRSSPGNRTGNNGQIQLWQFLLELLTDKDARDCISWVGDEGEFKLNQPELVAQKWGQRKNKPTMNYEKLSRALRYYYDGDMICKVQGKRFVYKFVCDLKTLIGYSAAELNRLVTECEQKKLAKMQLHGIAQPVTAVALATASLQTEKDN

The next assay addresses T2, ETS1 (UniProt P14921).
T2 sequence: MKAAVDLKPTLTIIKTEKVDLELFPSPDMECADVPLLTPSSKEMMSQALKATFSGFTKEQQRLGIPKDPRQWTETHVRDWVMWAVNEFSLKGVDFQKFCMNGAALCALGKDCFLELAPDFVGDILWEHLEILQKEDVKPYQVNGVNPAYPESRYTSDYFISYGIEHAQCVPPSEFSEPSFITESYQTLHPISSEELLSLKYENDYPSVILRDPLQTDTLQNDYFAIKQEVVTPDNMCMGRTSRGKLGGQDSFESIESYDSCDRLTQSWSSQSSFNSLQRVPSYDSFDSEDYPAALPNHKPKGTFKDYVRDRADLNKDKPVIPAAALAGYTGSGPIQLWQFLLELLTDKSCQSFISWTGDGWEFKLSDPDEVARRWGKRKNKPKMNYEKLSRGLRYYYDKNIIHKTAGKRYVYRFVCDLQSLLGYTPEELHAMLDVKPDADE

The target of another assay is T3, SPDEF (UniProt O95238).
T3 sequence: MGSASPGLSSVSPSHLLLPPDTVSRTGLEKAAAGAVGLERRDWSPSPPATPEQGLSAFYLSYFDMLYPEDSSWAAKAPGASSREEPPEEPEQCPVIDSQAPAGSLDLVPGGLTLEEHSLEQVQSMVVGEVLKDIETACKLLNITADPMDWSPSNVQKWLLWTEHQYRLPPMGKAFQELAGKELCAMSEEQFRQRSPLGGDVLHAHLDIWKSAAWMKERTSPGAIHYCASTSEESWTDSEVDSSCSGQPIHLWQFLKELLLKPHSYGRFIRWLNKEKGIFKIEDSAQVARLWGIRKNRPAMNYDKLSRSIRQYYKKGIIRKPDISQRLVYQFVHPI

Take GCATAG: the binding signal worked out at 0.8 with GABPA, 0.811 with ETS1 and 0.833 in the assay with SPDEF.

As to CAGGCC, the binding signal with GABPA was determined as 0.73; with ETS1, 0.741; in the assay with SPDEF, 0.676.

In the case of TAGGGG, the binding signal with GABPA was 0.916; in the assay with ETS1 it was 0.729; with SPDEF, 0.817.

Take GGAGGA: the values for the binding signal in the assay with GABPA, with ETS1 and with SPDEF were 0.246, 0.264 and 0.23, respectively.

For the sequence CGGGAA, the binding signal was determined as 0.677 with GABPA, 0.713 in the assay with ETS1 and 0.751 in the assay with SPDEF.

As to ACAGTG, the binding signal came out at 0.502 with GABPA, 0.51 with ETS1 and 0.505 with SPDEF.

For TCGCAG, the binding signal in the assay with GABPA was found to be 0.962; with ETS1, 0.952; in the assay with SPDEF, 0.865.

CGGCCA: the values for the binding signal with GABPA, with ETS1 and with SPDEF were 0.825, 0.749 and 0.842, respectively.

With GAGACG, the binding signal amounted to 0.321 with GABPA, 0.319 with ETS1 and 0.338 with SPDEF.

ACCAGC: the binding signal came out at 0.817 in the assay with GABPA, 0.889 in the assay with ETS1 and 0.81 with SPDEF.

As to ATCGGC, the binding signal is 0.649 in the assay with GABPA, 0.606 with ETS1 and 0.58 with SPDEF.

For the sequence GAGCTA, the binding signal with GABPA was 0.962; with ETS1, 0.875; with SPDEF, 0.869.

In the case of GAGTCT, the binding signal with GABPA amounted to 0.433; with ETS1 it was 0.409; with SPDEF, 0.401.

In the case of GGGTAC, the values for the binding signal in the assay with GABPA, with ETS1 and with SPDEF were 0.848, 0.968 and 0.963, respectively.

CAGACG: the figures for the binding signal with GABPA, with ETS1 and with SPDEF were 0.532, 0.492 and 0.478, respectively.

GGCATC: the binding signal in the assay with GABPA amounted to 0.921; with ETS1 it was 1.01; in the assay with SPDEF, 0.991.

For ACCAGG, the binding signal in the assay with GABPA was found to be 0.726; with ETS1, 0.71; with SPDEF, 0.818.

In the case of GCAGAC, the binding signal in the assay with GABPA is 0.79; with ETS1, 0.741; with SPDEF, 0.726.

In the case of GGGCGG, the figures for the binding signal in the assay with GABPA, with ETS1 and in the assay with SPDEF were 0.423, 0.4 and 0.449, respectively.

For the sequence CCTGAG, the binding signal is 0.865 with GABPA, 0.774 with ETS1 and 0.818 with SPDEF.

As to CAGGAG, the binding signal in the assay with GABPA amounted to 0.264; with ETS1, 0.245; in the assay with SPDEF it was 0.263.

On to CGTCAG, for which the binding signal with GABPA was 0.823; with ETS1, 0.747; with SPDEF, 0.847.

As for GGGGGC, the binding signal in the assay with GABPA stood at 0.642; with ETS1, 0.599; with SPDEF it was 0.583.

In the case of CAGTCT, the results for the binding signal with GABPA, with ETS1 and with SPDEF were 0.738, 0.719 and 0.711, respectively.

For the sequence GCCCAG, the values for the binding signal with GABPA, in the assay with ETS1 and with SPDEF were 0.718, 0.819 and 0.671, respectively.

Turning to GGACGT, the binding signal with GABPA was determined as 0.492; with ETS1, 0.56; with SPDEF it was 0.647.

As for GGGGCG, the figures for the binding signal with GABPA, with ETS1 and with SPDEF were 0.566, 0.66 and 0.594, respectively.

Turning to GGTGCA, the results for the binding signal with GABPA, in the assay with ETS1 and with SPDEF were 0.956, 0.781 and 0.938, respectively.

With GATTGG, the binding signal was determined as 0.815 in the assay with GABPA, 0.913 in the assay with ETS1 and 0.822 in the assay with SPDEF.

Regarding GTCGAA, the binding signal with GABPA was 0.666; with ETS1 it was 0.614; with SPDEF, 0.634.

Consider GTCGCG, for which the binding signal stood at 0.695 with GABPA, 0.652 with ETS1 and 0.643 in the assay with SPDEF.

For TGTAGG, the binding signal is 0.754 in the assay with GABPA, 0.823 with ETS1 and 0.841 in the assay with SPDEF.

Turning to GGTTGC, the figures for the binding signal with GABPA, with ETS1 and with SPDEF were 0.801, 0.881 and 0.867, respectively.

For TAGTGA, the binding signal in the assay with GABPA was 0.567; with ETS1, 0.56; in the assay with SPDEF, 0.573.

As to CAGGAC, the results for the binding signal with GABPA, with ETS1 and with SPDEF were 0.822, 0.789 and 0.862, respectively.

In the case of AGATAG, the binding signal in the assay with GABPA amounted to 0.899; in the assay with ETS1, 0.796; in the assay with SPDEF, 0.807.

In the case of GATGTG, the binding signal with GABPA amounted to 0.871; in the assay with ETS1, 0.856; in the assay with SPDEF, 1.18.

Take GGTGTC: the binding signal with GABPA amounted to 0.788; with ETS1, 0.893; with SPDEF, 0.888.

Turning to CGTGAG, the binding signal with GABPA came out at 0.113; with ETS1, 0.133; in the assay with SPDEF it was 0.13.

On to GAGTCG, for which the binding signal with GABPA came to 0.246; in the assay with ETS1, 0.198; with SPDEF it was 0.226.

For the sequence GAGCCA, the binding signal in the assay with GABPA is 0.605; with ETS1, 0.508; with SPDEF, 0.515.

Consider GGTCGA, for which the binding signal with GABPA worked out at 0.766; with ETS1 it was 0.748; in the assay with SPDEF it was 0.794.

Consider GCATGA, for which the binding signal in the assay with GABPA amounted to 0.872; with ETS1, 0.757; with SPDEF, 0.825.

Turning to GCATAA, the binding signal was determined as 0.777 in the assay with GABPA, 0.81 in the assay with ETS1 and 0.82 in the assay with SPDEF.

As for GCGCAT, the values for the binding signal in the assay with GABPA, with ETS1 and with SPDEF were 0.826, 0.872 and 0.816, respectively.

Consider AGGCTG, for which the binding signal with GABPA turned out to be 0.698; in the assay with ETS1 it was 0.672; in the assay with SPDEF it was 0.658.

Take GTAAGT: the binding signal with GABPA came to 0.764; with ETS1, 0.728; with SPDEF it was 0.691.

Consider GGATAG, for which the figures for the binding signal with GABPA, with ETS1 and with SPDEF were 0.739, 0.748 and 0.815, respectively.

For GAGTGT, the binding signal with GABPA worked out at 0.557; with ETS1, 0.517; with SPDEF, 0.536.

Regarding CAGTCC, the results for the binding signal with GABPA, with ETS1 and with SPDEF were 0.705, 0.626 and 0.67, respectively.

Take GGCGGT: the figures for the binding signal with GABPA, with ETS1 and with SPDEF were 0.443, 0.423 and 0.376, respectively.

For GTCAAT, the binding signal with GABPA stood at 0.846; in the assay with ETS1, 0.858; in the assay with SPDEF, 0.824.

On to GACGGA, for which the binding signal in the assay with GABPA was determined as 0.482; with ETS1, 0.501; with SPDEF, 0.539.

In the case of GAGGCA, the binding signal was determined as 0.462 in the assay with GABPA, 0.397 with ETS1 and 0.402 with SPDEF.

In the case of TCGGTC, the results for the binding signal with GABPA, with ETS1 and with SPDEF were 0.543, 0.558 and 0.566, respectively.

As for CGGAGA, the binding signal with GABPA came to 0.2; in the assay with ETS1 it was 0.218; in the assay with SPDEF, 0.23.

For TGCCAG, the binding signal with GABPA was 0.727; in the assay with ETS1, 0.657; with SPDEF, 0.675.

Take CAGGTG: the binding signal in the assay with GABPA was determined as 0.644; with ETS1, 0.575; in the assay with SPDEF, 0.537.

With AGGCAT, the binding signal amounted to 0.845 with GABPA, 0.843 with ETS1 and 0.825 with SPDEF.

In the case of TAGAGT, the binding signal with GABPA was found to be 0.877; with ETS1 it was 0.787; with SPDEF, 0.761.
